Assay [1] concerns the target FtsX periplasmic domain (bacterial two-hybrid fusion) (E. coli) (UniProt P0AC30). Kind of assay: two-hybrid; BACTH (T18 and T25 fusions of split CyaA) in the cytoplasm of E. coli BTH101; cultures spotted on LB agar with X-gal and 0.5 mM IPTG, 20°C, 3 days.
Assay [2] has as its target FtsX periplasmic domain (His-tagged) (E. coli) (UniProt P0AC30). As to the kind of experiment: pull-down; cleared E. coli C43(DE3) lysates mixed and incubated with Ni-IMAC resin overnight at 4°C; washed with 26 mM imidazole, 300 mM NaCl, 50 mM HEPES pH 7.2; eluted with 250 mM imidazole; SDS-PAGE; AmiA untagged.
In assay [3] the target is EnvC-FtsX periplasmic domain complex (wild-type) (E. coli). As to the kind of experiment: pull-down; cysteine locking experiment with 5 mM TCEP in lysates and washes: cleared lysate of the EnvC-FtsX periplasmic domain complex mixed with lysate of untagged AmiA, Ni-IMAC overnight at 4°C, wash 35 mM imidazole, 300 mM NaCl, 50 mM HEPES pH 7.2; SDS-PAGE.
The target of assay [4] is EnvC(ΔCC) (wild-type) (E. coli). As to the kind of experiment: pull-down; cleared E. coli C43(DE3) lysates mixed and incubated with Ni-IMAC resin overnight at 4°C; washed with 26 mM imidazole, 300 mM NaCl, 50 mM HEPES pH 7.2; eluted with 250 mM imidazole; SDS-PAGE; AmiA untagged.
Assay [5] concerns the target EnvC-FtsX periplasmic domain complex (wild-type) (E. coli). The description is as above.
The target of assay [6] is EnvC(ΔCC) I240E (E. coli). The assay is described as above.
Assay [7] concerns the target EnvC-FtsX periplasmic domain complex (wild-type) (E. coli). Kind of assay: pull-down; cysteine locking experiment without TCEP: cleared lysate of the EnvC-FtsX periplasmic domain complex mixed with lysate of untagged AmiA, Ni-IMAC overnight at 4°C, wash 35 mM imidazole, 300 mM NaCl, 50 mM HEPES pH 7.2; SDS-PAGE.

Amino acid sequences for entries named in this document (tags omitted). A change or cut given only in a name is not applied to a line headed by its entry.
UniProt P0AC30: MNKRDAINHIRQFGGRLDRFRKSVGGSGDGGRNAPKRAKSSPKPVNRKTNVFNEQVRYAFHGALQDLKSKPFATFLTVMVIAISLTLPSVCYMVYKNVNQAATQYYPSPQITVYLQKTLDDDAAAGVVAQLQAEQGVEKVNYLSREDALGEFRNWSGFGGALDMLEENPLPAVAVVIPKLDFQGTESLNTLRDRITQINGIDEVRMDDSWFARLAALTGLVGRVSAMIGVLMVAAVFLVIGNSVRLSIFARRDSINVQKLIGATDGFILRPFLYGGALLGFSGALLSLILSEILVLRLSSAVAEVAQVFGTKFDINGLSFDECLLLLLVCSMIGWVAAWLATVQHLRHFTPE

No constants are given. Whether binding was seen depends on the method and setting. For some assays here: A result given as binding can be weak or reduced; the word gives no strength. For some assays here: Sequences can lack the tags named with a protein. For some assays here: In cells and extracts the contact can be indirect.

B1: EnvC Arg237Glu (bacterial two-hybrid fusion) (protein, UniProt P37690 35-419)
chain: DERDQLKSIQADIAAKERAVRQKQQQRASLLAQLKKQEEAISEATRKLRETQNTLNQLNKQIDEMNASIAKLEQQKAAQERSLAAQLDAAFRQGEHTGIQLILSGEESQRGQRLQAYFGYLNQARQETIAQLKQTREEVAMQRAELEEKQSEQQTLLYEQRAQQAKLTQALNERKKTLAGLESSIQQGQQQLSELRANESRLENSIARAEAAAKARAEREAREAQAVRDRQKEATRKGTTYKPTESEKSLMSRTGGLGAPRGQAFWPVRGPTLHRYGEQLQGELRWKGMVIGASEGTEVKAIADGRVILADWLQGYGLVVVVEHGKGDMSLYGYNQSALVSVGSQVRAGQPIALVGSSGGQGRPSLYFEIRRQGQAVNPQPWLGR
B1: in assay [1], the binding entry is “binds”.

B2: EnvC (wild-type, co-expressed with the FtsX periplasmic domain) (protein, UniProt P37690 35-419)
chain: DERDQLKSIQADIAAKERAVRQKQQQRASLLAQLKKQEEAISEATRKLRETQNTLNQLNKQIDEMNASIAKLEQQKAAQERSLAAQLDAAFRQGEHTGIQLILSGEESQRGQRLQAYFGYLNQARQETIAQLKQTREEVAMQRAELEEKQSEQQTLLYEQRAQQAKLTQALNERKKTLAGLESSIQQGQQQLSELRANESRLRNSIARAEAAAKARAEREAREAQAVRDRQKEATRKGTTYKPTESEKSLMSRTGGLGAPRGQAFWPVRGPTLHRYGEQLQGELRWKGMVIGASEGTEVKAIADGRVILADWLQGYGLVVVVEHGKGDMSLYGYNQSALVSVGSQVRAGQPIALVGSSGGQGRPSLYFEIRRQGQAVNPQPWLGR
Consider B2, for which the binding entry in assay [2] was “binds”.

B3: EnvC (wild-type, mature form, bacterial two-hybrid fusion) (protein, UniProt P37690 35-419)
chain: DERDQLKSIQADIAAKERAVRQKQQQRASLLAQLKKQEEAISEATRKLRETQNTLNQLNKQIDEMNASIAKLEQQKAAQERSLAAQLDAAFRQGEHTGIQLILSGEESQRGQRLQAYFGYLNQARQETIAQLKQTREEVAMQRAELEEKQSEQQTLLYEQRAQQAKLTQALNERKKTLAGLESSIQQGQQQLSELRANESRLRNSIARAEAAAKARAEREAREAQAVRDRQKEATRKGTTYKPTESEKSLMSRTGGLGAPRGQAFWPVRGPTLHRYGEQLQGELRWKGMVIGASEGTEVKAIADGRVILADWLQGYGLVVVVEHGKGDMSLYGYNQSALVSVGSQVRAGQPIALVGSSGGQGRPSLYFEIRRQGQAVNPQPWLGR
Take B3: in assay [1], the binding result is “binds”.

B4: EnvC I240K (bacterial two-hybrid fusion) (protein, UniProt P37690 35-419)
chain: DERDQLKSIQADIAAKERAVRQKQQQRASLLAQLKKQEEAISEATRKLRETQNTLNQLNKQIDEMNASIAKLEQQKAAQERSLAAQLDAAFRQGEHTGIQLILSGEESQRGQRLQAYFGYLNQARQETIAQLKQTREEVAMQRAELEEKQSEQQTLLYEQRAQQAKLTQALNERKKTLAGLESSIQQGQQQLSELRANESRLRNSKARAEAAAKARAEREAREAQAVRDRQKEATRKGTTYKPTESEKSLMSRTGGLGAPRGQAFWPVRGPTLHRYGEQLQGELRWKGMVIGASEGTEVKAIADGRVILADWLQGYGLVVVVEHGKGDMSLYGYNQSALVSVGSQVRAGQPIALVGSSGGQGRPSLYFEIRRQGQAVNPQPWLGR
Consider B4, for which the binding entry in assay [1] is “binds”.

B5: EnvC I240E (bacterial two-hybrid fusion) (protein, UniProt P37690 35-419)
chain: DERDQLKSIQADIAAKERAVRQKQQQRASLLAQLKKQEEAISEATRKLRETQNTLNQLNKQIDEMNASIAKLEQQKAAQERSLAAQLDAAFRQGEHTGIQLILSGEESQRGQRLQAYFGYLNQARQETIAQLKQTREEVAMQRAELEEKQSEQQTLLYEQRAQQAKLTQALNERKKTLAGLESSIQQGQQQLSELRANESRLRNSEARAEAAAKARAEREAREAQAVRDRQKEATRKGTTYKPTESEKSLMSRTGGLGAPRGQAFWPVRGPTLHRYGEQLQGELRWKGMVIGASEGTEVKAIADGRVILADWLQGYGLVVVVEHGKGDMSLYGYNQSALVSVGSQVRAGQPIALVGSSGGQGRPSLYFEIRRQGQAVNPQPWLGR
With B5, the binding entry in assay [1] is on record as “binds”.

B6: EnvC Glu233Arg (bacterial two-hybrid fusion) (protein, UniProt P37690 35-419)
chain: DERDQLKSIQADIAAKERAVRQKQQQRASLLAQLKKQEEAISEATRKLRETQNTLNQLNKQIDEMNASIAKLEQQKAAQERSLAAQLDAAFRQGEHTGIQLILSGEESQRGQRLQAYFGYLNQARQETIAQLKQTREEVAMQRAELEEKQSEQQTLLYEQRAQQAKLTQALNERKKTLAGLESSIQQGQQQLSELRANRSRLRNSIARAEAAAKARAEREAREAQAVRDRQKEATRKGTTYKPTESEKSLMSRTGGLGAPRGQAFWPVRGPTLHRYGEQLQGELRWKGMVIGASEGTEVKAIADGRVILADWLQGYGLVVVVEHGKGDMSLYGYNQSALVSVGSQVRAGQPIALVGSSGGQGRPSLYFEIRRQGQAVNPQPWLGR
For the molecule B6, the binding result in assay [1] is recorded as “binds”.

B7: EnvC I240E (co-expressed with the FtsX periplasmic domain) (protein, UniProt P37690 35-419)
chain: DERDQLKSIQADIAAKERAVRQKQQQRASLLAQLKKQEEAISEATRKLRETQNTLNQLNKQIDEMNASIAKLEQQKAAQERSLAAQLDAAFRQGEHTGIQLILSGEESQRGQRLQAYFGYLNQARQETIAQLKQTREEVAMQRAELEEKQSEQQTLLYEQRAQQAKLTQALNERKKTLAGLESSIQQGQQQLSELRANESRLRNSEARAEAAAKARAEREAREAQAVRDRQKEATRKGTTYKPTESEKSLMSRTGGLGAPRGQAFWPVRGPTLHRYGEQLQGELRWKGMVIGASEGTEVKAIADGRVILADWLQGYGLVVVVEHGKGDMSLYGYNQSALVSVGSQVRAGQPIALVGSSGGQGRPSLYFEIRRQGQAVNPQPWLGR
On to B7, for which the binding entry in assay [2] is “binds”.

B8: EnvC L236E (bacterial two-hybrid fusion) (protein, UniProt P37690 35-419)
chain: DERDQLKSIQADIAAKERAVRQKQQQRASLLAQLKKQEEAISEATRKLRETQNTLNQLNKQIDEMNASIAKLEQQKAAQERSLAAQLDAAFRQGEHTGIQLILSGEESQRGQRLQAYFGYLNQARQETIAQLKQTREEVAMQRAELEEKQSEQQTLLYEQRAQQAKLTQALNERKKTLAGLESSIQQGQQQLSELRANESRERNSIARAEAAAKARAEREAREAQAVRDRQKEATRKGTTYKPTESEKSLMSRTGGLGAPRGQAFWPVRGPTLHRYGEQLQGELRWKGMVIGASEGTEVKAIADGRVILADWLQGYGLVVVVEHGKGDMSLYGYNQSALVSVGSQVRAGQPIALVGSSGGQGRPSLYFEIRRQGQAVNPQPWLGR
In the case of B8, in assay [1], the binding entry is reported as “binds”.

B9: AmiA (untagged, over-expressed) (enzyme, UniProt P36548 35-289)
chain: KDELLKTSNGHSKPKAKKSGGKRVVVLDPGHGGIDTGAIGRNGSKEKHVVLAIAKNVRSILRNHGIDARLTRSGDTFIPLYDRVEIAHKHGADLFMSIHADGFTNPKAAGASVFALSNRGASSAMAKYLSERENRADEVAGKKATDKDHLLQQVLFDLVQTDTIKNSLTLGSHILKKIKPVHKLHSRNTEQAAFVVLKSPSVPSVLVETSFITNPEEERLLGTAAFRQKIATAIAEGVISYFHWFDNQKAHSKKR
Consider B9, for which the binding entry in assay [3] is recorded as “binds weakly”; in assay [4], “no binding”; in assay [5], “binds weakly”; in assay [6], “binds”; in assay [7] it was “binds weakly”.

B10: EnvC(ΔNterm) (co-expressed with the FtsX periplasmic domain) (domain or fragment, UniProt P37690 55-419)
chain: RQKQQQRASLLAQLKKQEEAISEATRKLRETQNTLNQLNKQIDEMNASIAKLEQQKAAQERSLAAQLDAAFRQGEHTGIQLILSGEESQRGQRLQAYFGYLNQARQETIAQLKQTREEVAMQRAELEEKQSEQQTLLYEQRAQQAKLTQALNERKKTLAGLESSIQQGQQQLSELRANESRLRNSIARAEAAAKARAEREAREAQAVRDRQKEATRKGTTYKPTESEKSLMSRTGGLGAPRGQAFWPVRGPTLHRYGEQLQGELRWKGMVIGASEGTEVKAIADGRVILADWLQGYGLVVVVEHGKGDMSLYGYNQSALVSVGSQVRAGQPIALVGSSGGQGRPSLYFEIRRQGQAVNPQPWLGR
B10: the binding entry in assay [2] was “binds”.

The record behind these values is publication PMC12505981.
